Laboratory results as given in US12440473B2 (priority 2019, dated 2025).

System: diet-induced obese mice
Assay: Diet-induced obese mice on high fat diet, daily oral gavage for 12 weeks
Details: Baseline (Day 1), HFD mice

SMILES: CCCCCCCCCCCCCCC(=O)O [C15:0, pentadecanoic acid]
- Cholesterol (5 mg/kg dose group): 153 ± 20 mg/dL
- Glucose, 6 h fasted (5 mg/kg dose group): 189 ± 46 mg/dL
- Insulin, non-fasting (5 mg/kg dose group): 7.0 ± 4.1 ng/mL

SMILES: CCCCCCCCCCCCCCCCC(=O)O [C17:0, heptadecanoic acid]
- Cholesterol (5 mg/kg dose group): 152 ± 23 mg/dL
- Glucose, 6 h fasted (5 mg/kg dose group): 200 ± 23 mg/dL
- Insulin, non-fasting (5 mg/kg dose group): 5.8 ± 3.1 ng/mL
- Cholesterol (50 mg/kg dose group): 144 ± 20 mg/dL
- Glucose, 6 h fasted (50 mg/kg dose group): 196 ± 22 mg/dL
- Insulin, non-fasting (50 mg/kg dose group): 6.1 ± 2.2 ng/mL
